Assay results taken from patent US20170216399A1, “COMPOSITIONS, METHODS AND USES FOR PROTECTING WHITE BLOOD CELLS FROM SUPPRESSION OR DEATH” (LOS ANGELES BIOMEDICAL RESEARCH INSTITUTE AT HARBO-UCLA …, priority 2014, published 2017).
“Also recorded” adds a separate entry of the source. Like-named read-outs stand apart in the source and are kept apart here. Part of at least one peptide drawing is inferred or uncertain, most often the ends. Marks after values point to notes of the source that are not given here. Ends that are not written are not given here.

Legend:
[1] = test system: peripheral blood leucocytes; conditions: HNG added to CP, compared to CP treatment alone
Description: (§1) Mice were injected with heparin (1300 IU/kg BW, ip) 15 min before sacrifice by sodium pentobarbital (200 mg/kg BW IP). Body weight (BW) was recorded at autopsy. Blood samples were collected from the right ventricle of each mouse immediately after death and used for complete blood count using an automated cell counter (VetScanHM2, ABAXIS, Union City, Calif.). Plasma was separated and stored at −20° C. for subsequent HNG, IGF-1 and IGFBP-1 measurements by specific and sensitive ELISA assays as previously described (Chin et al., Endocrinology. 2013; 154:3739-44; Hwang et al, Growth Horm IGF Res 2008; 18: 65-74).
(§2) Twenty-five young adult (12-week-old) male mice (C57BL/6J) were used for this experiment in which 5 mice were used as control and 20 mice of each were intravenously inoculated via the tail vein with 1×10^5 murine B16 melanoma cells. 20 tumor-bearing mice were randomly divided into 4 groups with 5 mice in each group received 1) no treatment; 2) HNG alone; 3) CP alone; and 4) a combination treatment with the doses and duration described above.

white blood cells [2] = assay type: in vivo
Description: The effect of a potent HN analog HNG (HN-S14G) with or without cyclophosphamide (CP) in a mouse melanoma with lung metastasis model was studied. Five mice were used as control (Con) and 40 mice were inoculated intravenously with B16 murine melanoma cells. Of these mice five received no further treatment (NT). A week later the remaining 35 mice (n=5 per group) were treated for additional 2 weeks with: • 1) HNG 0.05 mg/KG body weight (BW) daily IP injection for 2 weeks; • 2) HNG 0.5 mg mg/Kg BW daily IP injection for 2 weeks; • 3) HNG 5 mg/Kg BW daily IP injection for 2 weeks; • 4) a single CP (200 mg IP single dose) injection+HNG 0.05 mg/KG body weight (BW) daily IP injection for 2 weeks; • 5) a single CP (200 mg IP single dose) injection+HNG 0.5 mg mg/Kg BW daily IP injection for 2 weeks; • 6) a single CP (200 mg IP single dose) injection HNG 0.5 mg mg/Kg BW daily IP injection for 2 weeks; • 7) a single CP (200 mg IP single dose) injection+HNG 5 mg mg/Kg BW daily IP injection.
All mice were sacrificed three weeks after tumor inoculation and two weeks after CP/HNG treatment. Blood was obtained for the measurement of white blood cell (WBC) count by a Coulter Counter.

[3] = test system: murine B16 melanoma cells; assay: Lung melanoma metastases in B16 tumor-bearing mice; assay type: in vivo, mouse
peripheral leucocytes = assay: Peripheral leucocytes among treatment groups of healthy mice (Table 7); assay type: in vivo, mouse; conditions: mean ± SEM
Description: (§3) Body weight (BW) was recorded at autopsy.

IGF-1 [4] = assay: Plasma IGF-1 levels among groups in healthy mice (Table 6); assay type: in vivo, mouse; conditions: mean ± SEM
Description: as §3

IGFBP-1 [5] = assay: Plasma IGFBP-1 levels (ELISA) in B16 tumor-bearing mice; assay type: in vivo, mouse; conditions: co-treatment of HNG with CP, compared to CP alone, tumor-bearing mice (FIG. 3C)
IGF-1 [6] = assay: Plasma IGF-1 levels (ELISA) in B16 tumor-bearing mice; assay type: in vivo, mouse; conditions: tumor-bearing mice (FIG. 3B)
Description: as §1, §2

IGFBP-1 [7] = assay: Plasma IGFBP-1 levels among groups in healthy mice (Table 6); assay type: in vivo, mouse; conditions: mean ± SEM
Description: as §3

white blood cells [8] = assay type: in vivo; conditions: HNG 5mg/KG/day IP concomitant with CP 200 mg IP; for CP induced suppression of peripheral WBC: two days (FIG. 1A)
Description: as §3
The effect of a potent HN analog HNG (HN-S14G) (5mg/KG/day, IP) with and without concomitant cyclophosphamide (CP, 200 mg IP) treatment was administered to 4 adult healthy mice in each group. Another four mice served as controls. Two days after treatment, the animals were killed and their peripheral blood cells were collected and the blood cell counts were assessed by a blood cell counter.

cells = conditions: in some cells; cited from earlier work

## MAPRGFSCLLLLTGEIDLPVKRRA [HNG]
[1]; tumor-bearing mice (FIG. 4A)
  white blood cells: significantly increased; also recorded: significantly rescues
[1]; tumor-bearing mice (FIG. 4B)
  granulocytes: significantly increased; also recorded: significantly rescues
[1]; tumor-bearing mice (FIG. 4C)
  monocytes: significantly increased; also recorded: significantly rescues
White blood cells [2]; HNG 0.05 mg/KG BW daily for two weeks concomitant with CP
  WBC suppression by CP: no detectable effect
White blood cells [2]; HNG 0.5 mg/Kg/BW/day for two weeks concomitant with CP
  WBC suppression by CP: reversed the WBC suppression
White blood cells [2]; HNG 5 mg/KG/BW/day for two weeks concomitant with CP
  WBC suppression by CP: reversed the WBC suppression
White blood cells [2]; HNG alone up to 5 mg/Kg BW IP per day for two weeks, melanoma-bearing mice (FIG. 2)
  white blood cell count (WBC): no effect
White blood cells [2]; HNG concomitant treatment, mice bearing metastatic melanoma in lungs, dose not stated (FIG. 2 legend)
  CP induced suppression of WBC: reversed
[3]; HNG added to CP treatment, compared to CP treatment alone
  number of tumors (lung metastases): further decreased; also recorded: enhancing CP-induced tumor suppression
[3]; treatment alone vs non-treated tumor-bearing mice
  number of metastatic tumors in the lungs: significantly decreased
Peripheral leucocytes
  Granulocytes (10^6/ml): 0.5 ± 0.2^ad 10^6/ml
  Lymphocytes (10^6/ml): 1.7 ± 0.4^a 10^6/ml
  Monocytes (10^6/ml): 0.1 ± 0.03^a 10^6/ml
  Total WBC (10^6/ml): 2.3 ± 0.6^a 10^6/ml
IGF-1 [4]
  IGF-1 (ng/ml): 347.2 ± 20.1^b ng/ml
IGFBP-1 [5]
  plasma IGFBP-1 levels: increases
IGF-1 [6]; HNG added to CP, compared to CP alone
  plasma IGF-1 levels: further suppressed
IGF-1 [6]; treatment alone
  plasma IGF-1 levels: significantly suppressed; also recorded: suppresses
IGFBP-1 [7]
  IGFBP-1 (ng/ml): 29.7 ± 5.9^a ng/ml
White blood cells [8]
  CP induced suppression of peripheral WBC: partially rescued
White blood cells [8]; listed as TING
  CP induced suppression of peripheral WBC: reduced the CP induced suppression
White blood cells [8]; two days (FIG. 1B)
  decrease in granulocyte counts induced by CP: prevented the marked decrease; also recorded: partially rescued
cells
  Cytoprotective Action: potency relative to HN: 10 to 1000 more potent
